Assay results as given in PMC12377093.
Results are given in words; binding and its absence hold for the method and conditions named. Binding seen in cells or lysates may run through a third protein. Some entries that bind do so weakly or less than the wild type. For part of these data: Tags and fused reporters may be left off the sequences shown.

By UniProt entry, the sequences of proteins in these tests, tags left out.
UniProt B8XX90: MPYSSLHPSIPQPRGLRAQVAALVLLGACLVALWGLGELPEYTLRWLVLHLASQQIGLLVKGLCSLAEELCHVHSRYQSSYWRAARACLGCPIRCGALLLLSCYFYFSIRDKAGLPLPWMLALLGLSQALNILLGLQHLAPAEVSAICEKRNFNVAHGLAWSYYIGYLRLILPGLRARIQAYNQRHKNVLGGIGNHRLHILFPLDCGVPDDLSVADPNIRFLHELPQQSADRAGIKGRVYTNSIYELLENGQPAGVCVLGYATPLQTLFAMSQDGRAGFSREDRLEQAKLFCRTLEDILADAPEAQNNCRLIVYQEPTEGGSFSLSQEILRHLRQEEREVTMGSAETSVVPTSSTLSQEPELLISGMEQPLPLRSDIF
UniProt M9MMN5: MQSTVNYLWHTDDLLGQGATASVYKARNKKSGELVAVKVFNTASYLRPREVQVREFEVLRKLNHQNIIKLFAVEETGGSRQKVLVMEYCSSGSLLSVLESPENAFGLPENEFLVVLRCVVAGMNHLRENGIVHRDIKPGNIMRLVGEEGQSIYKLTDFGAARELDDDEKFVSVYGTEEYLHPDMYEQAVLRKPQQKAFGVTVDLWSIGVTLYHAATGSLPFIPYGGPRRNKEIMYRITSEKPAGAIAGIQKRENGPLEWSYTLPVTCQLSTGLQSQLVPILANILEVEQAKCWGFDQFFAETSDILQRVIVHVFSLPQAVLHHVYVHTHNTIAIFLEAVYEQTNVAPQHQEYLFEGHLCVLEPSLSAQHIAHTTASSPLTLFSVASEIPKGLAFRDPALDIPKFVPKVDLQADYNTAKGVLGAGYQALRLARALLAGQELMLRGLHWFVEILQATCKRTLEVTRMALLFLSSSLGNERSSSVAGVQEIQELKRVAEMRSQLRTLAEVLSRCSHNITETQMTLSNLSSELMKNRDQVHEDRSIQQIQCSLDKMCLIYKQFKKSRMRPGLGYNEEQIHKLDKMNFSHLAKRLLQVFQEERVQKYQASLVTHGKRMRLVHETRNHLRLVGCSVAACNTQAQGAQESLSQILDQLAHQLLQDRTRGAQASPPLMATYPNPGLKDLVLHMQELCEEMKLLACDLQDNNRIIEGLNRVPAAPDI

B1: FLAG-tagged porcine IRF3 (p3×FLAG-CMV-7.1-pIRF3) (protein, UniProt Q764M6 1-419)
chain: MGTQKPRILPWLISQLNQGQLEGVAWLDEGHTRFRIPWKHGLRQDAQQEDFGIFQAWAEASGAYTPGKDKPDLPTWKRNFRSALNRKEALRLAEDHSKDPHDPHKIYEFVTSGVGDFPEPDTSLDLSGRYSTSDTHEDSLDKLLSGMDLASDAGPQSLTLALEQPPQLSLSPSVDAPASCPNLGVRENPLKQLLANDDEWEFQVTVFYRGCQVFQQTVCSPGGLRLVGSEAEDGTLAGQPVRLPDPAASLTDRGVADYVRRVLSCLGGGLALWRAGQWLWAQRLGHCHVYWAMGEELIPDSGHKPDGEVPKDREGGVFDLGPFIEDLIAFIEGSRRSPRYTLWFCMGQSWPQDEPWVKRLVMVKVVPMCLRALVDMARDGGASSLENTVDLHISNSHPLSLTSDQYKACLRDLVEDMDF
B2: endogenous IRF3 of 3D4/21 porcine alveolar macrophages (protein, UniProt Q764M6 1-419)
chain: B1 chain

Tests used:
[1] = biological target: endogenous STING of 3D4/21 porcine alveolar macrophages (pig (endogenous in 3D4/21)) (UniProt B8XX90); assay: co-IP
[2] = biological target: mCherry-tagged porcine STING (pmCherry-C1-pSTING) (porcine) (UniProt B8XX90); assay: co-IP
[3] = biological target: porcine STING with HA tag (pcDNA-DEST-pSTING-2 HA) (porcine) (UniProt B8XX90); assay: co-IP; HEK-293T co-transfected with STING-HA and mCherry-TBK1, IKKε-myc or IRF3-Flag for 24 h (Figure 4A-C)
[4] = biological target: porcine STING with HA tag (pcDNA-DEST-pSTING-2 HA) (porcine) (UniProt B8XX90); assay: co-IP

Molecule	binding [1]	binding [2]	binding [3]	binding [4]
endogenous IKKε of 3D4/21 porcine alveolar macrophages (from UniProt M9MMN5 1-718)	binds	–	–	–
Myc-tagged porcine IKKε (pcDNA-Myc-IKKε) (from UniProt M9MMN5 1-718)	–	binds	binds	–
B1	–	–	binds	binds
B2	binds	–	–	–
